# Assay results: PubChem BioAssay AID1347076 (National Center for Advancing Translational Sciences (NCATS), 2019)
# Out of some 400,000 compounds screened, about 13,000 (3.2%) were called active. The inconclusive results got no clear call from the source; some entries with a clear call stand among them for comparison. Calls come from the whole dose curve; as a rule, active = well fitted cell-killing curve with a large enough effect; inconclusive = small, poorly fitted or top-dose-only effect, or effect the other way; inactive = flat fitted curve, though single readings scatter. Potencies beside an inconclusive call are fits to weak or partial responses and may not hold up.
# Test: qHTS assay for MDR1-selective chemotherapeutics: Primary screen using the drug-selected MDR subline cells KB-V1; note: nearly all actives have a fitted effect of over 60% in size
# Conditions: KB-V1 MDR cells viability, CellTiter-Glo, 72 h; activity change, negative = cytotoxicity: at 46.1 µM (top of the series)
# Summary of the method: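 Cytotoxicity via CellTiter-Glo luminescence after 72 h compound exposure at 37 degrees C. Cells: drug-selected KB-V1 line, DMEM phenol-red free plus 10% FBS. Compounds tested at multiple concentrations; normalized data fitted to concentration-effect curves.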
# % is set by controls: 0 for no effect and ±100 for the full control effect; potency is the fitted concentration of half-maximal effect.
Compound,Potency,"activity change, negative = cytotoxicity"
C[C@@]12CCC=C[C@H]1[C@H](c1ccc(C(F)(F)F)cc1)N(Cc1ccccc1)C2=O,inactive,–
CCN(CC)S(=O)(=O)c1csc(C(=O)NCc2ccccc2)c1,active: 20.6 µM,–
CCOc1ncccc1C(=O)Nc1ccccc1C(=O)NCc1ccc2c(c1)OCO2,active: 5.17 µM,–
O=C(CCl)Nc1cccc(S(=O)(=O)NC2=NCCCCC2)c1,"inconclusive: 20.6 µM [cytotoxic, single point]",–
COc1ccc(Br)c(Cn2c(C)c(C(=O)N(C)Cc3ccc(F)cc3)sc2=O)c1,active: 8.2 µM,–
CCc1nnc(NC(=O)CSc2nnc(-c3c[nH]c4ccccc34)n2CCOC)s1,"inconclusive: 15.8 µM [rising, partial curve, poor fit]",–
C/C(=N\N1CCN(C2c3ccccc3-c3ccccc32)CC1)c1ccco1,"inconclusive: 8.2 µM [cytotoxic, partial curve]",–
O=C(NCc1ccc(F)cc1)c1cc(C2CCCN(C(=O)CCCc3ccccc3)C2)on1 (stereo not given),inactive,–
Cc1ccc(-c2csc(N/N=C/c3ccco3)n2)c(C)c1,"inconclusive: 5.8 µM [cytotoxic, full curve]",–
COc1cccc(NC(=O)C2CCN(c3nc4ccccc4nc3C(F)(F)F)CC2)c1,inactive,–
CCCOc1ccc(N/C=C/C(=O)c2cc(OC)c(OC)c(OC)c2)cc1,"inconclusive: 29.1 µM [cytotoxic, single point]",–
Cc1sc2ncnc(N3CCN(Cc4ccccc4)CC3)c2c1-c1ccccc1,active: 10.3 µM,–
Cc1cccc(Cn2nnc(C(=O)Nc3cc(C)ccc3C)c2N)c1,"inconclusive: 29.1 µM [cytotoxic, single point]",–
CC(C)NC(=O)C1CCCN(c2ncnc3c2nc2n3CCCCC2)C1 (stereo not given),–,inconclusive: -50.1%
CC1Sc2ccc(S(=O)(=O)CCC(=O)N3CCCC3)cc2NC1=O (stereo not given),"inconclusive: 4.11 µM [rising, full curve]",–
Cc1ccc(NC(=S)NNC(=S)Nc2ccc(C)cc2)cc1,"inconclusive: 4.61 µM [cytotoxic, full curve, poor fit]",–
CSc1nc2ccc3nc(NC(=O)c4cccs4)sc3c2s1,"inconclusive: 16.4 µM [cytotoxic, partial curve, poor fit]",–
COc1ccc(-c2noc(-c3ccc(Cl)cc3[N+](=O)[O-])n2)cc1OC,active: 18.4 µM,–
COc1ccc(OCCN2CCC(C(=O)NC(C)c3cccc4ccccc34)CC2)cc1 (stereo not given),inactive,–
Cn1cccc1Cc1nnc(SCC(=O)N2CCN(c3ccccc3)CC2)n1-c1ccc(F)cc1,active: 11.6 µM,–

# Taken from above:
# Under Potency, CCc1nnc(NC(=O)CSc2nnc(-c3c[nH]c4ccccc34)n2CCOC)s1 shows inconclusive: 15.8 µM [rising, partial curve, poor fit]
# Under Potency, Cc1cccc(Cn2nnc(C(=O)Nc3cc(C)ccc3C)c2N)c1 shows inconclusive: 29.1 µM [cytotoxic, single point]
